Patent USRE39104E1, “Process for the production of dry pharmaceutical forms and the thus obtained pharmaceutical compositions” (Laboratoires Effik, priority 1994, dated 2006)
Where “and” joins values, the source holds several entries; their conditions need not be identical. Identical values can stand only once. At least one compound was matched to its structure with a doubt left.

Test: Kinetics of dissolution of fenofibrate co-precipitates and calibrating range (UV 278 nm)
Format: physicochemical
Details: Dish 1-6, decrease ascribed to UV light degradation

CC(C)OC(=O)C(C)(C)Oc1ccc(C(=O)c2ccc(Cl)cc2)cc1 [Fenofibrate]
Calibrating range of Fenofibrate at 5 mg/l (time 0 minutes): 0
Calibrating range of Fenofibrate at 5 mg/l (time 3 minutes): 95.26 and 98.94 and 93.68 and 94.21 and 93.15
Calibrating range of Fenofibrate at 5 mg/l (time 6 minutes): 92.1 and 95.78 and 91.05 and 90.52
Calibrating range of Fenofibrate at 5 mg/l (time 9 minutes): 87.89 and 91.05 and 86.31 and 85.78
Calibrating range of Fenofibrate at 5 mg/l (time 12 minutes): 83.68 and 86.31 and 82.1 and 83.15 and 80.52
Calibrating range of Fenofibrate at 5 mg/l (time 15 minutes): 80.52 and 83.15 and 78.42 and 80 and 76.84
Calibrating range of Fenofibrate at 5 mg/l (time 18 minutes): 77.89 and 77.36 and 80 and 75.26 and 74.21
Calibrating range of Fenofibrate at 5 mg/l (time 21 minutes): 74.73 and 76.84 and 71.57 and 73.68 and 71.05
Calibrating range of Fenofibrate at 5 mg/l (time 24 minutes): 72.1 and 73.68 and 68.94 and 71.05 and 68.42
Calibrating range of Fenofibrate at 5 mg/l (time 27 minutes): 70 and 71.57 and 66.84 and 68.94 and 66.31
Calibrating range of Fenofibrate at 5 mg/l (time 30 minutes): 68.42 and 67.89 and 69.47 and 64.73 and 67.36
